Test: Odor description

SMILES | Odor description
CC(C)(C)c1ccc(CCCC=O)cc1 [Example 1, 4-(4-(tert-Butyl)phenyl)butanal] | fatty, waxy, floral, weak
CC(C)Cc1ccc(CCCC=O)cc1 [Example 2, 4-(4-(Isobutyl)phenyl)butanal] | fruity, aldehydic, floral, green, fatty, strong
Cc1cc(CC(C)C)ccc1CCCC=O [Example 3, 4-(4-Isobutyl-2-methylphenyl)butanal] | floral, green, lilial, silvial, strong

From patent US20180230399A1, “ORGANIC COMPOUNDS” (GIVAUDAN SA, priority 2014, published 2018)
